According to article PMC11083118:
These are yes or no findings as the source states them, for the method shown. In cells and extracts the contact can be indirect. Some binding calls cover weakened binding; strength is not graded here.

B1: α-catenin (protein, UniProt Q5U302 1-922)
chain: MVTADWTERRSKKEMTAVHTGNINFKWDPKSLEIRTLAVERLLEPLVTQVTTLVNTNSKGPSNKKRGRSKKAHVLAASVEQATENFLEKGDKIAKESQFLKEELVAAVDDVRKQGDLMKSAAGEFADDPCSSVKRGNMVRAARALLSAVTRLLILADMADVYKLLVQLKVVEDGILKLRNAGNEQDLGIQYRALKPEVDKLNIMAAKRQQELKDVGHRDQMAAARGILQKNVPILYTASQACLQHPDVAAYKANRDLIYKQLQQAVTGISNAAQATASDDASQQQGGGGGGGELAYALNNFDKQIIVDPLSFSEERFRPSLEERLESIISGAALMADSSCTRDDRRERIVAECNAVRQALQDLLSEYMGNAGRKERSDALNSAIDKMTKKTRDLRRQLRKAVMDHVSDSFLETNVPLLVLIEAAKNGNEKEVKEYAQVFREHANKLIEVANLACSISNNEEGVKLVRMSASQLEALCPQVINAALALAAKPQSKLAQENMDLFKEQWEKQVRVLTDAVDDITSIDDFLAVSENHILEDVNKCVIALQEKDVDGLDRTAGAIRGRAARVIHVVTSEMDNYEPGVYTEKVLEATKLLSNTVMPRFTEQVEAAVEALSSDPAQPMDENEFIDASRLVYDGIRDIRKAVLMIRTPEELDDSDFETEDFDVRSRTSVQTEDDQLIAGQSARAIMAQLPQEQKAKIAEQVASFQEEKSKLDAEVSKWDDSGNDIIVLAKQMCMIMMEMTDFTRGKGPLKNTSDVISAAKKIAEAGSRMDKLGRTIADHCPDSACKQDLLAYLQRIALYCHQLNICSKVKAEVQNLGGELVVSGVDSAMSLIQAAKNLMNAVVQTVKASYVASTKYQKSQGMASLNLPAVSWKMKAPEKKPLVKREKQDETQTKIKRASQKKHVNPVQALSEFKAMDSI
B2: pY654-β-catenin (protein, UniProt Q9WU82 1-781)
chain: MATQADLMELDMAMEPDRKAAVSHWQQQSYLDSGIHSGATTTAPSLSGKGNPEEEDVDTSQVLYEWEQGFSQSFTQEQVADIDGQYAMTRAQRVRAAMFPETLDEGMQIPSTQFDAAHPTNVQRLAEPSQMLKHAVVNLINYQDDAELATRAIPELTKLLNDEDQVVVNKAAVMVHQLSKKEASRHAIMRSPQMVSAIVRTMQNTNDVETARCTAGTLHNLSHHREGLLAIFKSGGIPALVKMLGSPVDSVLFYAITTLHNLLLHQEGAKMAVRLAGGLQKMVALLNKTNVKFLAITTDCLQILAYGNQESKLIILASGGPQALVNIMRTYTYEKLLWTTSRVLKVLSVCSSNKPAIVEAGGMQALGPHLTDPSQRLVQNCLWTLRNLSDAATKQEGMEGLLGTLVQLLGSDDINVVTCAAGILSNLTCNNYKNKMMVCQVGGIEALVRTVLRAGDREDITEPAICALRHLTSRHQEAEMAQNAVRLHYGLPVVVKLLHPPSHWPLIKATVGLIRNLALCPANHAPLREQGAIPRLVQLLVRAHQDTQRRTSMGGTQQQFVEGVRMEEIVEGCTGALHILARDVHNRIVIRGLNTIPLFVQLLYSPIENIQRVAAGVLCELAQDKEAAEAIEAEGATAPLTELLHSRNEGVATYAAAVLFRMSEDKPQDYKKRLSVELTSSLFRTEPMAWNETADLGLDIGAQGEALGYRQDDPSYRSFHSGGYGQDALGMDPMMEHEMGGHHPGADYPVDGLPDLGHAQDLMDGLPPGDSNQLAWFDTDL
modifications: phosphotyrosine at 654
B3: β-catenin (protein, UniProt Q9WU82 1-781)
chain: MATQADLMELDMAMEPDRKAAVSHWQQQSYLDSGIHSGATTTAPSLSGKGNPEEEDVDTSQVLYEWEQGFSQSFTQEQVADIDGQYAMTRAQRVRAAMFPETLDEGMQIPSTQFDAAHPTNVQRLAEPSQMLKHAVVNLINYQDDAELATRAIPELTKLLNDEDQVVVNKAAVMVHQLSKKEASRHAIMRSPQMVSAIVRTMQNTNDVETARCTAGTLHNLSHHREGLLAIFKSGGIPALVKMLGSPVDSVLFYAITTLHNLLLHQEGAKMAVRLAGGLQKMVALLNKTNVKFLAITTDCLQILAYGNQESKLIILASGGPQALVNIMRTYTYEKLLWTTSRVLKVLSVCSSNKPAIVEAGGMQALGPHLTDPSQRLVQNCLWTLRNLSDAATKQEGMEGLLGTLVQLLGSDDINVVTCAAGILSNLTCNNYKNKMMVCQVGGIEALVRTVLRAGDREDITEPAICALRHLTSRHQEAEMAQNAVRLHYGLPVVVKLLHPPSHWPLIKATVGLIRNLALCPANHAPLREQGAIPRLVQLLVRAHQDTQRRTSMGGTQQQFVEGVRMEEIVEGCTGALHILARDVHNRIVIRGLNTIPLFVQLLYSPIENIQRVAAGVLCELAQDKEAAEAIEAEGATAPLTELLHSRNEGVATYAAAVLFRMSEDKPQDYKKRLSVELTSSLFRTEPMAWNETADLGLDIGAQGEALGYRQDDPSYRSFHSGGYGQDALGMDPMMEHEMGGHHPGADYPVDGLPDLGHAQDLMDGLPPGDSNQLAWFDTDL

Key:
[1] = biological target: T1, vinculin (rat (endogenous in IAR-20, IAR-6-1, IAR-6-1-DNE)) (UniProt P85972); test: co-IP; total cell lysates (10 mM Tris-HCl pH 7.5, 0.5 mM EDTA, 150 mM NaCl, 0.5% Na deoxycholate, 1% NP-40, protease and phosphatase inhibitors) incubated with primary antibody, then Protein A or G agarose, +4 °C; Western blot; sparse cultures of control IAR-20, IAR-20 treated with EGF for 20 min, IAR-6-1 and IAR-6-1-DNE cells
T1 sequence: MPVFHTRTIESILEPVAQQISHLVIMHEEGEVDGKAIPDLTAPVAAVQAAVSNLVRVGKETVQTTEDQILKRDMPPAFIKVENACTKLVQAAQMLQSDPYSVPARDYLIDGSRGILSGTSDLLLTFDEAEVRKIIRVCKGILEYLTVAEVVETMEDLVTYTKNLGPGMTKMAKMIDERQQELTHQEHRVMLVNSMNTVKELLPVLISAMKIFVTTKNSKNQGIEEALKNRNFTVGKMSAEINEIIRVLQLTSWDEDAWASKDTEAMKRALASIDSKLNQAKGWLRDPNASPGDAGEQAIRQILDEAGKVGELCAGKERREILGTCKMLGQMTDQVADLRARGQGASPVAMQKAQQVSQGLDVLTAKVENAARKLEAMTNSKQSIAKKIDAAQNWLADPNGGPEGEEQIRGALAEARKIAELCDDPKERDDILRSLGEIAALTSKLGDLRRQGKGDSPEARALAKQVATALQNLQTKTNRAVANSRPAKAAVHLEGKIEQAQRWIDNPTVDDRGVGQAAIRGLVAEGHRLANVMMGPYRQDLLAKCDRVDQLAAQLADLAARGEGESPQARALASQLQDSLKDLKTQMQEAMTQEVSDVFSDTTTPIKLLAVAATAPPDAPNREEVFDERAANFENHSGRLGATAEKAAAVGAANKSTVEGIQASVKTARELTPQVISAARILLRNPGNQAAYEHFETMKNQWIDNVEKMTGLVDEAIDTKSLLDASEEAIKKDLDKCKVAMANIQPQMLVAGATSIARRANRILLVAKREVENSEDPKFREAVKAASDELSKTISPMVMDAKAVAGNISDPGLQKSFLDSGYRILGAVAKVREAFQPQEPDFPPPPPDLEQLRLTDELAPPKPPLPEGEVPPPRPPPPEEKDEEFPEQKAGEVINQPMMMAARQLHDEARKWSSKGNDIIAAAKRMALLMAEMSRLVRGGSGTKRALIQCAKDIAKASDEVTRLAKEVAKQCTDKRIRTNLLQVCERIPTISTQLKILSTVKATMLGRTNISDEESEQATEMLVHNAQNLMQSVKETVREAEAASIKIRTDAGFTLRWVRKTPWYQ

[2] = biological target: T2, α-catenin (rat (endogenous in IAR-20, IAR-6-1, IAR-6-1-DNE)) (UniProt Q5U302); test: as above
T2 sequence: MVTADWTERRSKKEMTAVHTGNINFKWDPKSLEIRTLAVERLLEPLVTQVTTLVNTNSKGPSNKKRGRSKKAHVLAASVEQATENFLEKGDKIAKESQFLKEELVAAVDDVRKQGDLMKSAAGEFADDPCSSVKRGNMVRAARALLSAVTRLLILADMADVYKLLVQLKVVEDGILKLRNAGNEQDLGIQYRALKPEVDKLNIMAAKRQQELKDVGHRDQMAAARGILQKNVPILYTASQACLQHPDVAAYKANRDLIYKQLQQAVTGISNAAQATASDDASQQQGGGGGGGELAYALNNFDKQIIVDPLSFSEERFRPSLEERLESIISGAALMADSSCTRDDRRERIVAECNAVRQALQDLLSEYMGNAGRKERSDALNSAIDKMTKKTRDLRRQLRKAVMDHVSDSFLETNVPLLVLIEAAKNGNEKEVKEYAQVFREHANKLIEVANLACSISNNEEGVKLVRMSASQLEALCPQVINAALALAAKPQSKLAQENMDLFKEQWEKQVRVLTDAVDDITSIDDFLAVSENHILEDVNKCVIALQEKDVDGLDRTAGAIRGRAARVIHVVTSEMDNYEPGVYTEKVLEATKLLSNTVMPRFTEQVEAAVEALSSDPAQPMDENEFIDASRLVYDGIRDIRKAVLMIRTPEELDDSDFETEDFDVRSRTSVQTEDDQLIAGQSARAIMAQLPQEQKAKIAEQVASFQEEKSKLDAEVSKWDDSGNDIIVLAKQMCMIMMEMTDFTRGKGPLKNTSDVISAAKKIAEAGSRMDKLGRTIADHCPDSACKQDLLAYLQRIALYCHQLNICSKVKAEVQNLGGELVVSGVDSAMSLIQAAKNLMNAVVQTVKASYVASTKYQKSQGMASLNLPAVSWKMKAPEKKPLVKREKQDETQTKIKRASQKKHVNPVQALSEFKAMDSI

Binder	binding [1]	binding [2]
B1	binds	–
B2	binds	–
B3	–	binds
